Strings that start with PEPTIDE1 are HELM notation: dots part the residues, brackets hold end groups and non-standard residues.
Experiment: general procedure: Fmoc solid-phase peptide synthesis; 2-chlorotrityl resin (polystyrene crosslinked with 1-5% divinylbenzene)
Details: whole synthesis, HPLC-MS

Substance	final HPLC purity
PEPTIDE1{[HOVal].C.Y.[Dap].E.[D-Dab].T.W.S.[tBuGly].C.[Throl]}|PEPTIDE2{[Dab].S.[Dab].[Dab].[Dab].[dL].L.[Dab].[Dab].T}$PEPTIDE1,PEPTIDE1,2:R3-11:R3|PEPTIDE1,PEPTIDE2,5:R3-1:R1|PEPTIDE2,PEPTIDE2,4:R3-10:R2$$$V2.0	95%
PEPTIDE1{[ac].V.[Orn].Y.S.E.[D-Dab].[Hse].W.S.[tBuGly].[dV]}|PEPTIDE2{[Dab].T.[Dap].[Dab].[Dab].[dL].L.[Dab].[Dab].T}$PEPTIDE1,PEPTIDE1,3:R3-12:R2|PEPTIDE1,PEPTIDE2,6:R3-1:R1|PEPTIDE2,PEPTIDE2,4:R3-10:R2$$$V2.0	83%
PEPTIDE1{[NMeVal].C.Y.[Dab].E.[D-Dab].[Hse].W.[Hse].[tBuGly].C.S.[am]}|PEPTIDE2{[Dab].T.[Dab].[Dab].[Dab].[dL].L.[Dab].[Dab].T}$PEPTIDE1,PEPTIDE1,2:R3-11:R3|PEPTIDE1,PEPTIDE2,5:R3-1:R1|PEPTIDE2,PEPTIDE2,4:R3-10:R2$$$V2.0	84%
PEPTIDE1{[HOVal].C.Y.[Dap].E.[D-Dab].[Hse].W.S.[tBuGly].C.[Throl]}|PEPTIDE2{[Dab].T.[Dab].[Dab].[Dab].[dL].L.[Dab].[Dab].T}$PEPTIDE1,PEPTIDE1,2:R3-11:R3|PEPTIDE1,PEPTIDE2,5:R3-1:R1|PEPTIDE2,PEPTIDE2,4:R3-10:R2$$$V2.0	86%
PEPTIDE1{[ac].V.[Orn].Y.S.E.[D-Dab].[Hse].W.S.[tBuGly].[dN]}|PEPTIDE2{[Dab].T.[Dap].[Dab].[Dab].[dL].L.[Dab].[Dab].T}$PEPTIDE1,PEPTIDE1,3:R3-12:R2|PEPTIDE1,PEPTIDE2,6:R3-1:R1|PEPTIDE2,PEPTIDE2,4:R3-10:R2$$$V2.0	83%
PEPTIDE1{V.E.Y.[Dab].E.[D-Dab].T.W.S.[tBuGly].[Dab].S}|PEPTIDE2{[Dab].T.[Dab].[Dab].[Dab].[dL].L.[Dab].[Dab].T}$PEPTIDE1,PEPTIDE1,2:R3-11:R3|PEPTIDE1,PEPTIDE2,5:R3-1:R1|PEPTIDE2,PEPTIDE2,4:R3-10:R2$$$V2.0	83%
PEPTIDE1{[HOVal].C.Y.[Dab].E.[dR].[Hse].W.S.[tBuGly].C.[Throl]}|PEPTIDE2{[Dab].T.[Dab].[Dab].[Dab].[dL].L.[Dab].[Dab].T}$PEPTIDE1,PEPTIDE1,2:R3-11:R3|PEPTIDE1,PEPTIDE2,5:R3-1:R1|PEPTIDE2,PEPTIDE2,4:R3-10:R2$$$V2.0	79%
PEPTIDE1{[ac].V.[Orn].Y.S.E.[D-Dab].[Dab].W.S.[tBuGly].[dT]}|PEPTIDE2{[Dab].T.[Dap].[Dab].[Dab].[dL].L.[Dab].[Dab].T}$PEPTIDE1,PEPTIDE1,3:R3-12:R2|PEPTIDE1,PEPTIDE2,6:R3-1:R1|PEPTIDE2,PEPTIDE2,4:R3-10:R2$$$V2.0	84%
PEPTIDE1{[HOVal].C.T.[Dab].E.[D-Dab].[Hse].W.S.[tBuGly].C.[Tyrol]}|PEPTIDE2{[Dab].T.[Dab].[Dab].[Dab].[dL].L.[Dab].[Dab].T}$PEPTIDE1,PEPTIDE1,2:R3-11:R3|PEPTIDE1,PEPTIDE2,5:R3-1:R1|PEPTIDE2,PEPTIDE2,4:R3-10:R2$$$V2.0	82%
PEPTIDE1{V.D.Y.[Dab].E.[D-Dab].T.W.S.[tBuGly].[Dab].S}|PEPTIDE2{[Dab].T.[Dab].[Dab].[Dab].[dL].L.[Dab].[Dab].T}$PEPTIDE1,PEPTIDE1,2:R3-11:R3|PEPTIDE1,PEPTIDE2,5:R3-1:R1|PEPTIDE2,PEPTIDE2,4:R3-10:R2$$$V2.0	93%
PEPTIDE1{[HOVal].C.V.[Dab].E.[D-Dab].[Hse].W.S.Y.C.[Throl]}|PEPTIDE2{[Dab].T.[Dab].[Dab].[Dab].[dL].L.[Dab].[Dab].T}$PEPTIDE1,PEPTIDE1,2:R3-11:R3|PEPTIDE1,PEPTIDE2,5:R3-1:R1|PEPTIDE2,PEPTIDE2,4:R3-10:R2$$$V2.0	81%
PEPTIDE1{[ac].I.[Orn].Y.[Dap].E.[D-Dab].[Hse].W.S.[tBuGly].[dT]}|PEPTIDE2{[Dab].T.[Dap].[Dab].[Dab].[dL].L.[Dab].[Dab].T}$PEPTIDE1,PEPTIDE1,3:R3-12:R2|PEPTIDE1,PEPTIDE2,6:R3-1:R1|PEPTIDE2,PEPTIDE2,4:R3-10:R2$$$V2.0	73%
PEPTIDE1{[ac].V.[Orn].Y.[Dab].E.[D-Dab].[Hse].W.S.V.[dT]}|PEPTIDE2{[Dab].T.[Dap].[Dab].[Dab].[dL].L.[Dab].[Dab].T}$PEPTIDE1,PEPTIDE1,3:R3-12:R2|PEPTIDE1,PEPTIDE2,6:R3-1:R1|PEPTIDE2,PEPTIDE2,4:R3-10:R2$$$V2.0	95%
PEPTIDE1{[3MeButA].C.Y.[Dap].E.[D-Dab].T.W.S.[tBuGly].C.[Serol]}|PEPTIDE2{[Dab].T.[Dab].[Dab].[Dab].[dL].L.[Dab].[Dab].T}$PEPTIDE1,PEPTIDE1,2:R3-11:R3|PEPTIDE1,PEPTIDE2,5:R3-1:R1|PEPTIDE2,PEPTIDE2,4:R3-10:R2$$$V2.0	91%
PEPTIDE1{[HOVal].C.Y.[Dab].E.[D-Dab].[Hse].W.S.V.C.[Throl]}|PEPTIDE2{[Dab].T.[Dab].[Dab].[Dab].[dL].L.[Dab].[Dab].T}$PEPTIDE1,PEPTIDE1,2:R3-11:R3|PEPTIDE1,PEPTIDE2,5:R3-1:R1|PEPTIDE2,PEPTIDE2,4:R3-10:R2$$$V2.0	87%
PEPTIDE1{[ac].V.[Orn].Y.S.E.[D-Dab].[Hse].W.S.[tBuGly].[D-Orn]}|PEPTIDE2{[Dab].T.[Dap].[Dab].[Dab].[dL].L.[Dab].[Dab].T}$PEPTIDE1,PEPTIDE1,3:R3-12:R2|PEPTIDE1,PEPTIDE2,6:R3-1:R1|PEPTIDE2,PEPTIDE2,4:R3-10:R2$$$V2.0	75%
PEPTIDE1{[ac].V.[Orn].Y.S.E.[D-Dab].[Hse].W.S.[tBuGly].[D-Hse]}|PEPTIDE2{[Dab].T.[Dap].[Dab].[Dab].[dL].L.[Dab].[Dab].T}$PEPTIDE1,PEPTIDE1,3:R3-12:R2|PEPTIDE1,PEPTIDE2,6:R3-1:R1|PEPTIDE2,PEPTIDE2,4:R3-10:R2$$$V2.0	75%
PEPTIDE1{[ac].V.C.S.[Dab].E.[D-Dab].[Hse].W.S.[tBuGly].C.Y.[Glyol]}|PEPTIDE2{[Dab].T.[Dab].[Dab].[Dab].[dL].L.[Dab].[Dab].T}$PEPTIDE1,PEPTIDE1,3:R3-12:R3|PEPTIDE1,PEPTIDE2,6:R3-1:R1|PEPTIDE2,PEPTIDE2,4:R3-10:R2$$$V2.0	92%
PEPTIDE1{[HOVal].C.Y.[Dab].E.[D-Dab].[Hse].W.S.[tBuGly].C.[Throl]}|PEPTIDE2{[Dab].T.[Dab].[Dab].[Dab].[dL].L.[Dab].[Dab].T}$PEPTIDE1,PEPTIDE1,2:R3-11:R3|PEPTIDE1,PEPTIDE2,5:R3-1:R1|PEPTIDE2,PEPTIDE2,4:R3-10:R2$$$V2.0	80%
PEPTIDE1{[ac].[Dab].V.[Dap].Y.C.E.[D-Dab].S.W.C.[tBuGly].[am]}|PEPTIDE2{[Dab].T.[Dap].[Dab].[Dab].[dL].L.[Dab].[Dab].T}$PEPTIDE1,PEPTIDE1,6:R3-11:R3|PEPTIDE1,PEPTIDE2,7:R3-1:R1|PEPTIDE2,PEPTIDE2,4:R3-10:R2$$$V2.0	77%
PEPTIDE1{[ac].Y.C.V.[Dab].E.[D-Dab].[Hse].V.S.W.C.[Serol]}|PEPTIDE2{[Dab].T.[Dab].[Dab].[Dab].[dL].L.[Dab].[Dab].T}$PEPTIDE1,PEPTIDE1,3:R3-12:R3|PEPTIDE1,PEPTIDE2,6:R3-1:R1|PEPTIDE2,PEPTIDE2,4:R3-10:R2$$$V2.0	88%
